{
  "source": "PubChem BioAssay AID493014",
  "about": "(National Center for Advancing Translational Sciences (NCATS), 2011)",
  "note": "In all, about 340,000 compounds went through this assay and about 170 (0.05%) were called active. This list was built around the results that the source calls inconclusive (neither active nor inactive); the mix of calls is not that of the screen. Calls come from the whole dose curve; as a rule, active = well fitted inhibition curve with a large enough effect in the signal ratio, with a control signal flat (not every such curve was filed as active); inconclusive = small, poorly fitted or top-dose-only effect, or effect the other way, or a change in a side signal; inactive = flat fitted curve, though single readings scatter; the % refers to the signal ratio. Potencies beside an inconclusive call are fits to weak or partial responses and may not hold up. Potency is the fitted concentration of half-maximal effect.",
  "data": [
    {"assay": "qHTS Assay to Find Inhibitors of Chronic Active B-Cell Receptor Signaling;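 for activity change, negative = inhibition: plate controls were basal doxycycline-induced cells for no effect and cells given 10 µM MG132 for full effect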", "settings": "ABC-DLBCL IkBa-CBG/CBR reporter, luminescence ratio (green luciferase fused to IkBa over red control in TMD8 lymphoma cells), 4 h; activity change, negative = inhibition: at 46.1 µM (top of the series)", "how_it_was_run": "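TMD8 human ABC-DLBCL cells with doxycycline-inducible IκBα–green luciferase fusion and unfused red luciferase, in 0.5% FBS medium; compounds up to 46 uM, 4 h at 37C. Green/red luminescence ratio, filter-overlap corrected, fitted to concentration-response curves.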", "values": [
      {"smiles": "Oc1ccc(Cl)cc1CNCc1cccc2ccccc12", "activity change, negative = inhibition": "inactive"},
      {"smiles": "Cc1cc(C(=O)NNC(=O)c2sccc2C)c(C)o1", "Potency": "inconclusive: 18.4 µM [falling, partial curve]"},
      {"smiles": "CC(C)n1cc(NC(=O)COc2ccccc2Cl)cn1", "activity change, negative = inhibition": "inconclusive: 5.31%"},
      {"smiles": "Cc1cccc(NC(=S)NC2CCCC2)n1", "activity change, negative = inhibition": "inconclusive: -22.6%"},
      {"smiles": "CCCN(CCC)C(=O)CC(c1ccccc1)c1cc(C)ccc1O", "note": "(stereo not drawn)", "activity change, negative = inhibition": "inconclusive: -14.8%"},
      {"smiles": "CCn1c(=O)cc(SCC(=O)Nc2ccc(OC)c(OC)c2)c2ccccc21", "Potency": "inconclusive: 13 µM [falling, partial curve, poor fit]"},
      {"smiles": "O=C1C(=C2CCCCC2)SC(=S)N1Cc1ccco1", "Potency": "inconclusive: 35.5 µM [falling, single point]"},
      {"smiles": "O=C(CSc1n[nH]c(-c2ccco2)n1)Nc1ccccc1F", "Potency": "inconclusive: 35.5 µM [falling, partial curve, poor fit]"},
      {"smiles": "CN(C)CCC(c1ccc(Cl)cc1)c1ccccn1", "note": "(stereo not drawn)", "Potency": "inconclusive: 2.91 µM [falling, partial curve, poor fit]"},
      {"smiles": "CC(C)C[C@H](NC(=O)NC(C)C)C(=O)O", "activity change, negative = inhibition": "inconclusive: 1.48%"},
      {"smiles": "Cc1cc(N/C(=N\\S(=O)(=O)c2ccc(F)cc2F)c2ccccc2)no1", "activity change, negative = inhibition": "inconclusive: 5.77%"},
      {"smiles": "Cc1cccc(N2CCN(C3=NC(=O)C(Cc4ccccc4)S3)CC2)c1", "note": "(stereo not drawn)", "activity change, negative = inhibition": "inactive"},
      {"smiles": "O=C(CCCCCN1C(=O)CCC1=O)Nc1ncn[nH]1", "activity change, negative = inhibition": "inconclusive: 12.4%"},
      {"smiles": "CC1CCCN(c2ccc([N+](=O)[O-])s2)C1", "note": "(stereo not drawn)", "Potency": "inconclusive: 22.4 µM [falling, partial curve]"},
      {"smiles": "COc1ccccc1C(=O)NCCC(=O)NCC1CCCCC1", "activity change, negative = inhibition": "inactive"},
      {"smiles": "CCOC(=O)N1CCC(NC(=O)c2cc3c(-c4ccccc4F)nn(C)c3s2)CC1", "activity change, negative = inhibition": "inconclusive: -1.51%"},
      {"smiles": "Cc1cc2[nH]c(=O)cc(-c3ccccc3)n2n1", "Potency": "inconclusive: 20 µM [falling, single point]"},
      {"smiles": "Cn1cccc1/C=N/NC(=O)c1ccn[nH]1", "Potency": "inconclusive: 23.1 µM [falling, partial curve]"},
      {"smiles": "C=CCn1c(CSCc2ccc(C)cc2)nnc1SCC(=O)NCc1ccccc1", "activity change, negative = inhibition": "inconclusive: 6.63%"},
      {"smiles": "COc1ccccc1NC(=O)Nc1nc(CC(=O)Nc2ccc(F)c(F)c2)cs1", "activity change, negative = inhibition": "inconclusive: 9.04%"},
      {"smiles": "COc1ccc(C(=O)N2CC(c3ccccc3)CC2=O)cc1", "note": "(stereo not drawn)", "activity change, negative = inhibition": "inconclusive: -4.63%"},
      {"smiles": "COc1cccc(NC(=O)CN2C(=O)NC(C)(CC(C)C)C2=O)c1", "note": "(stereo not drawn)", "activity change, negative = inhibition": "inactive"},
      {"smiles": "C/C(CC(=O)NC12CC3CC(CC(C3)C1)C2)=N\\NC(=O)c1cnccn1", "Potency": "inconclusive: 17.8 µM [falling, partial curve]"},
      {"smiles": "CCn1c(=NC(=O)c2ccc(S(=O)(=O)N(C)C)cc2)sc2cccc(OC)c21", "activity change, negative = inhibition": "inconclusive: -3.25%"},
      {"smiles": "O=C(Nc1cc(=O)[nH]c(=O)[nH]1)c1cccc(C(F)(F)F)c1", "activity change, negative = inhibition": "inactive"},
      {"smiles": "CCN(CC)S(=O)(=O)c1cc(NS(=O)(=O)c2ccccc2)ccc1C", "activity change, negative = inhibition": "inconclusive: 25.1%"},
      {"smiles": "Cc1noc(C)c1S(=O)(=O)N(C)C[C@H]1Oc2ccc(NS(=O)(=O)c3ccccc3)cc2C(=O)N([C@H](C)CO)C[C@@H]1C", "activity change, negative = inhibition": "inconclusive: -1.8%"},
      {"smiles": "CCc1nnc(NC(=O)c2ccc(OC)c(S(=O)(=O)N3CCCC3)c2)s1", "activity change, negative = inhibition": "inactive"},
      {"smiles": "CCOc1ccc(OCC)c(NC(=O)C2CCN(S(=O)(=O)c3ccc4c(c3)CC(C)N4C(C)=O)CC2)c1", "note": "(stereo not drawn)", "activity change, negative = inhibition": "inconclusive: -0.0976%"},
      {"smiles": "Cc1ccc(C(=O)OCC(=O)N2CC(=O)Nc3ccccc32)s1", "activity change, negative = inhibition": "inconclusive: 5.11%"},
      {"smiles": "CC(C)(C)NC(=O)C(=O)NCc1ccccn1", "activity change, negative = inhibition": "inconclusive: 7.3%"},
      {"smiles": "COc1cc(NC(=O)c2ccc(N3CCCC3=O)cc2)cc(OC)c1", "Potency": "inconclusive: 16.4 µM [falling, single point]"},
      {"smiles": "O=C(NC(=S)NCc1ccc(-c2nc3ccccc3s2)cc1)c1ccco1", "activity change, negative = inhibition": "inconclusive: 14%"},
      {"smiles": "Nc1nc(-c2ccc(Br)s2)c(Br)s1", "activity change, negative = inhibition": "inconclusive: 5.69%"},
      {"smiles": "O=C(NC(=S)Nc1ccc(S(=O)(=O)Nc2nccs2)cc1)c1ccc(F)cc1", "activity change, negative = inhibition": "inconclusive: 8.14%"},
      {"smiles": "O=C(Cn1nc(C(=O)O)c2ccccc2c1=O)c1cc(F)ccc1F", "activity change, negative = inhibition": "inconclusive: 11.6%"},
      {"smiles": "COc1cccc(/C(O)=C2/C(=O)C(=O)N(CCCN(C)C)C2c2cccc(Cl)c2)c1", "note": "(stereo not drawn)", "activity change, negative = inhibition": "inconclusive: 5.46%"},
      {"smiles": "CCOC(=O)Cn1cc(C(=O)C(C)(C)C)c2ccccc21", "activity change, negative = inhibition": "inactive"},
      {"smiles": "CCn1ncc(/C=N/NC(=O)c2ccc3c(c2)OCO3)c1C", "Potency": "inconclusive: 10 µM [falling, partial curve]"},
      {"smiles": "OCCN1CCN(c2ncnc3scc(-c4ccc(F)cc4)c23)CC1", "activity change, negative = inhibition": "inconclusive: -2.15%"},
      {"smiles": "O=C(Nc1ccc(N2CCOCC2)cc1)c1cc(-c2ccncc2)nc2ccccc12", "activity change, negative = inhibition": "inconclusive: -1.28%"},
      {"smiles": "Cc1ccc(C2C(C(=O)O)c3ccccc3C(=O)N2C)o1", "note": "(stereo not drawn)", "Potency": "inconclusive: 1.46 µM [falling, partial curve, poor fit]"},
      {"smiles": "O=C(/C=C/NNC(=O)c1ccc(Br)cc1)c1ccccc1", "Potency": "inconclusive: 16.4 µM [falling, partial curve, poor fit]"},
      {"smiles": "CCOC(=O)/C=c1\\s/c(=C\\c2sccc2C)c(=O)n1CC(=O)NCc1ccc(C)cc1", "activity change, negative = inhibition": "inactive"},
      {"smiles": "CCOC(=O)c1sc(NC(=O)c2cc(S(=O)(=O)N3CCOCC3)ccc2C)nc1C", "activity change, negative = inhibition": "inconclusive: -10.1%"},
      {"smiles": "O=[N+]([O-])c1ccc(NC2CCN(Cc3ccccc3)CC2)c([N+](=O)[O-])c1", "activity change, negative = inhibition": "inactive"},
      {"smiles": "O=C(NCCc1c[nH]c2ccccc12)c1ccc(Br)o1", "activity change, negative = inhibition": "inconclusive: 0.755%"},
      {"smiles": "CCc1cccc(NC(=O)Nc2ccc3c(c2)OCO3)c1", "Potency": "inconclusive: 35.5 µM [falling, single point]"},
      {"smiles": "CCOC(=O)c1c(-c2ccccc2)csc1NC(=O)CSc1nc(N)cc(N)n1", "activity change, negative = inhibition": "inconclusive: 4.46%"},
      {"smiles": "Cc1onc(-c2c(Cl)cccc2Cl)c1C(=O)NC(=S)Nc1sc2c(c1C(N)=O)CCC(C)C2", "note": "(stereo not drawn)", "activity change, negative = inhibition": "inconclusive: -0.481%"},
      {"smiles": "CC(C)(C)NC(=O)CCCSc1nc2ccccc2s1", "activity change, negative = inhibition": "inconclusive: 22.5%"},
      {"smiles": "CSc1nc(N2CCOCC2)nc2ccc(C)cc12", "activity change, negative = inhibition": "inconclusive: 1.13%"},
      {"smiles": "Cc1ccc(-c2csc3ncnc(Sc4nnc(CN5CCCCCC5=O)o4)c23)cc1", "Potency": "inconclusive: 2.51 µM [falling, partial curve, poor fit]"},
      {"smiles": "CN(NC(=O)c1ccccc1F)c1ccc([N+](=O)[O-])cn1", "activity change, negative = inhibition": "inactive"},
      {"smiles": "O=c1[nH]cnc2c1nc(NCc1ccccc1)n2C1O[C@@H](CO)[C@H](O)[C@@H]1O", "note": "(stereo partly drawn)", "activity change, negative = inhibition": "inconclusive: -3.62%"},
      {"smiles": "COc1ccccc1-n1cnnc1SCC(=O)N1CCN(S(=O)(=O)c2ccccc2)CC1", "Potency": "inconclusive: 1 µM [falling, full curve]"},
      {"smiles": "COc1ccc2[nH]c(=O)c(CNc3ccccc3C)cc2c1", "Potency": "inconclusive: 15.8 µM [falling, single point]"},
      {"smiles": "CCN1CCN(C(=O)CSc2cc(=O)n(CC)c3ccccc23)CC1", "Potency": "inconclusive: 13 µM [falling, partial curve, poor fit]"},
      {"smiles": "CCOC(=O)c1cnc(SCCc2ccccc2)nc1N", "activity change, negative = inhibition": "inconclusive: 4.43%"},
      {"smiles": "CCCCN(CC)c1nc(N)c2c(N)nc(OCC)cc2c1C#N", "Potency": "inconclusive: 0.291 µM [rising, full curve, poor fit]"},
      {"smiles": "COc1ccc(CNc2nc(NCc3ccc(OC)c(OC)c3)n(C(=O)c3cccs3)n2)cc1OC", "activity change, negative = inhibition": "inconclusive: -10.4%"},
      {"smiles": "CSc1ccccc1NC(=S)Nc1cccc(C(F)(F)F)c1", "Potency": "inconclusive: 36.6 µM [rising, partial curve, poor fit]"},
      {"smiles": "O=C(Nc1ccc(N2CCOCC2)cc1)c1ccc([N+](=O)[O-])o1", "Potency": "inconclusive: 20 µM [falling, single point]"},
      {"smiles": "COc1cccc(C(=O)Nc2nnc(C3CCCO3)s2)c1", "note": "(stereo not drawn)", "Potency": "inconclusive: 14.6 µM [falling, partial curve]"},
      {"smiles": "COc1cccc(/C=N/n2c(-c3cc(C)[nH]n3)n[nH]c2=S)c1O", "activity change, negative = inhibition": "inconclusive: 24%"},
      {"smiles": "COc1cccc(-c2nc(-c3ccccn3)no2)c1", "Potency": "inconclusive: 35.5 µM [rising, single point]"},
      {"smiles": "O=C(Cn1c(=O)[nH]n(-c2ccccc2)c1=O)N1CCCc2ccccc21", "activity change, negative = inhibition": "inactive"},
      {"smiles": "Clc1ccc(CSc2nnc(CNc3cccc(Cl)c3)o2)cc1", "Potency": "inconclusive: 0.00517 µM [rising, full curve, poor fit]"},
      {"smiles": "O=C(Nc1nnc(-c2cccs2)s1)c1cccc(F)c1", "activity change, negative = inhibition": "inconclusive: 284%"},
      {"smiles": "COc1ccc(-c2cc(C(=O)NC(Cc3c[nH]c4ccccc34)C(=O)O)c(C)o2)cc1OC", "note": "(stereo not drawn)", "Potency": "inconclusive: 3.26 µM [rising, full curve, poor fit]"},
      {"smiles": "CC(C)(C)C1CCC(OCC(O)CN2CCCC2)CC1", "note": "(stereo not drawn)", "Potency": "inconclusive: 17.8 µM [falling, partial curve, poor fit]"},
      {"smiles": "COc1ccc(-c2nsc3c(N4CCCCC4C)ncnc23)cc1", "note": "(stereo not drawn)", "activity change, negative = inhibition": "inconclusive: 13%"},
      {"smiles": "COc1cc2nc(C)sc2cc1SC", "activity change, negative = inhibition": "inconclusive: -2.85%"},
      {"smiles": "CN(C)S(=O)(=O)c1cccc(NC(=O)CSc2cccc3cccnc23)c1", "Potency": "inconclusive: 35.5 µM [rising, single point]"},
      {"smiles": "Cc1ccccc1C(=O)Nc1ccc(N2CCCCCC2)cc1", "Potency": "inconclusive: 35.5 µM [rising, single point]"},
      {"smiles": "O=C(CSc1ncccn1)Nc1ccc(N2CCOCC2)cc1", "activity change, negative = inhibition": "inconclusive: 3.05%"},
      {"smiles": "CCOc1ccc(C(=O)Nc2cc(Cl)ccc2-n2cncn2)cc1OC", "activity change, negative = inhibition": "inconclusive: 14.4%"},
      {"smiles": "O=C(Nc1ccc(NC(=O)C2CC2)cn1)c1ccccc1Cl", "Potency": "inconclusive: 23.1 µM [falling, partial curve, poor fit]"}
    ]}
  ]
}
